Assay results reported in EP1389624A1, “Phosphorous-containing cysteine and serine protease inhibitors” (CEPHALON, INC., priority 1995, dated 1997).
For at least one compound, name, drawing or mass did not settle the structure.

Target: T1, Calpain I (Homo sapiens, UniProt P07384)
T1 sequence (P07384 1-714): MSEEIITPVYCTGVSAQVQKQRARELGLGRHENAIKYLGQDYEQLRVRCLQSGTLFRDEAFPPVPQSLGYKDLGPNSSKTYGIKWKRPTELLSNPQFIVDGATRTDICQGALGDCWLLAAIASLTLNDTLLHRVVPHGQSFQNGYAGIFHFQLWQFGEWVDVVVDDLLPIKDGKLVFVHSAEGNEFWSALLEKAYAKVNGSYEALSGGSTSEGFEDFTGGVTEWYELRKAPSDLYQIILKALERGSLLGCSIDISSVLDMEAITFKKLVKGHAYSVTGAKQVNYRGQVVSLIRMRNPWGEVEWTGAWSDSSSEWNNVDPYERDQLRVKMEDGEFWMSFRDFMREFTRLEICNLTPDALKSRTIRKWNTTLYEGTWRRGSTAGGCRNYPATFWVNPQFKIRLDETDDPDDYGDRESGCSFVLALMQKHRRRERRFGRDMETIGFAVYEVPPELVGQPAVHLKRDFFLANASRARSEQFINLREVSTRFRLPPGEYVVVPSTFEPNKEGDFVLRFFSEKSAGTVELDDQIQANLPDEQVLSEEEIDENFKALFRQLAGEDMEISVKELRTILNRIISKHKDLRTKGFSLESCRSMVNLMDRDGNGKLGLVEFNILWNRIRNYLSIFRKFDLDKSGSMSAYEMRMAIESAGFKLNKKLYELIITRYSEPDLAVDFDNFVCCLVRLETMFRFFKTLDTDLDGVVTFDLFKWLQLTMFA
T1 sequence (P04632 1-268 partner): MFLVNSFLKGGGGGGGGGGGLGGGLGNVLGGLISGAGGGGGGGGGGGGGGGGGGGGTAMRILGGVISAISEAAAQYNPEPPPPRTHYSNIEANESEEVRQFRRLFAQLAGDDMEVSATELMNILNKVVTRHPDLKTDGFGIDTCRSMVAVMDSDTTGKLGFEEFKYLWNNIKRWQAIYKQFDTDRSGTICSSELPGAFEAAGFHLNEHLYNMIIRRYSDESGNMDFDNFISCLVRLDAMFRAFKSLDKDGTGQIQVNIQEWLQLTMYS
Assay: Inhibition and rate of inactivation of cysteine protease (calpain I) activity, Succ-Leu-Tyr-MNA substrate hydrolysis
Conditions: apparent second order rate constant of inactivation from reaction progress curves under pseudo-first order conditions; mean of three or more determinations

Structure (SMILES)	kobs/I x 10^-3 M^-1s^-1
CC(C)C[C@H](NS(=O)(=O)N1CCOCC1)C(=O)N[C@@H](Cc1ccccc1)C(=O)COP(=O)(OCc1ccccc1)OCc1ccccc1 [Example 36, Dibenzyl (3S)-[3-[(N-morpholinylsulfonyl-L-leucyl)amino]-2-oxo-4-phenylbutyl] phosphate]	182 x 10^-3 M^-1s^-1
CC(C)C[C@H](NC(=O)OCc1ccccc1)C(=O)N[C@@H](Cc1ccccc1)C(=O)COP(=O)(OCc1ccccc1)c1ccccc1 (stereo partly drawn) [Example 49, Benzyl (3S)-[3-[(N-Benzyloxycarbonyl-L-leucyl)amino]-2-oxo-4-phenylbutyl]phenylphosphonate]	337 x 10^-3 M^-1s^-1
